According to paper PMC13196873:
These are yes or no findings as the source states them, for the method shown. In cells and extracts the contact can be indirect. Binding calls can cover weak binding; strength is not graded here. Tags and fused reporters may be left off the sequences shown.

B1: Lgi3 (FLAG-tagged) (protein, UniProt Q8N145 31-548)
chain: KRPPKTPPCPPSCSCTRDTAFCVDSKAVPRNLPSEVISLTLVNAAFSEIQDGAFSHLPLLQFLLLNSNKFTLIGDNAFTGLSHLQYLFIENNDIWALSKFTFRGLKSLTHLSLANNNLQTLPRDIFRPLDILNDLDLRGNSLNCDCKVKWLVEWLAHTNTTVAPIYCASPPRFQEHKVQDLPLREFDCITTDFVLYQTLAFPAVSAEPFLYSSDLYLALAQPGVSACTILKWDYVERQLRDYDRIPAPSAVHCKPMVVDSQLYVVVAQLFGGSYIYHWDPNTTRFTRLQDIDPQRVRKPNDLEAFRIDGDWYFAVADSSKAGATSLYRWHQNGFYSHQALHPWHRDTDLEFVDGEGKPRLIVSSSSQAPVIYQWSRTQKQFVAQGEVTQVPDAQAVKHFRAGRDSYLCLSRYIGDSKILRWEGTRFSEVQALPSRGSLALQPFLVGGRRYLALGSDFSFTQIYQWDEGRQKFVRFQELAVQAPRAFCYMPAGDAQLLLAPSFKGQTLVYRHIVVDLSA
B2: Lgi4 (FLAG-tagged) (protein, UniProt Q8N135-1 20-537)
chain: WRPPKGKCPLRCSCSKDSALCEGSPDLPVSFSPTLLSLSLVRTGVTQLKAGSFLRIPSLHLLLFTSNSFSVIEDDAFAGLSHLQYLFIEDNEIGSISKNALRGLRSLTHLSLANNHLETLPRFLFRGLDTLTHVDLRGNPFQCDCRVLWLLQWMPTVNASVGTGACAGPASLSHMQLHHLDPKTFKCRAIELSWFQTVGESALSVEPFSYQGEPHIVLAQPFAGRCLILSWDYSLQRFRPEEELPAASVVSCKPLVLGPSLFVLAARLWGGSQLWARPSPGLRLAPTQTLAPRRLLRPNDAELLWLEGQPCFVVADASKAGSTTLLCRDGPGFYPHQSLHAWHRDTDAEALELDGRPHLLLASASQRPVLFHWTGGRFERRTDIPEAEDVYATRHFQAGGDVFLCLTRYIGDSMVMRWDGSMFRLLQQLPSRGAHVFQPLLIARDQLAILGSDFAFSQVLRLEPDKGLLEPLQELGPPALVAPRAFAHITMAGRRFLFAACFKGPTQIYQHHEIDLSA

Target: KVβ1.2 subunit
Experiment: co-IP; HEK293 cells cotransfected with or without KV1.5, KVβ1.2, Lgi3 and Lgi4; total lysates immunoprecipitated against KVβ1.2, immunoblotted for KV1.5, FLAG (Lgi3-4) and KVβ1.2

Binder	binding
B1	binds
B2	binds
